Chains of the proteins cited; added tags and fusions are not shown. Lines headed by an entry give the natural chain unless they say otherwise; changes in a name come on top.
UniProt O94782: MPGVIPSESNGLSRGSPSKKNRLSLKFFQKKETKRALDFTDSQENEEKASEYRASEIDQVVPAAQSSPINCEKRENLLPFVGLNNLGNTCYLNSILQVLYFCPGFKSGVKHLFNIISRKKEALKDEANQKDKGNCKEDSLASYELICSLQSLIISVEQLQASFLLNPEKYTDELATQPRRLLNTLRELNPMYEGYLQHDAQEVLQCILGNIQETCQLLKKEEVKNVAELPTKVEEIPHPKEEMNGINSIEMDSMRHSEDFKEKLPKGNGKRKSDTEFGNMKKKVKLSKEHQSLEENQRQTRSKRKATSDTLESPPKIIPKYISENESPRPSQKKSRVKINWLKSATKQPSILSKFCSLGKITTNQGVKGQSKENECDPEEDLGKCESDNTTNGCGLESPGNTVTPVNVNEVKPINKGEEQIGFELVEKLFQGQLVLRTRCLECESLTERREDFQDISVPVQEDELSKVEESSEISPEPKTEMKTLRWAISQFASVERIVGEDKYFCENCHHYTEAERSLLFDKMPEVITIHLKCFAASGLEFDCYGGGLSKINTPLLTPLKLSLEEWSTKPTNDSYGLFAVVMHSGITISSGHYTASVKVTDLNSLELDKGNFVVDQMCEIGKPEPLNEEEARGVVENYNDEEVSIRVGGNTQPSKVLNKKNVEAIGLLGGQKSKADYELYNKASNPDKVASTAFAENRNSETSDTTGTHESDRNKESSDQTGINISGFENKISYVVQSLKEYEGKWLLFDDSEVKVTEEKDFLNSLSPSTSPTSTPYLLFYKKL

In all, about 390,000 compounds went through this assay and about 910 (0.23%) were called active. Inconclusive results, whose numbers are uncertain, are shown with a selection of clear calls. The call rests on the fitted dose curve; in most records, active means well fitted inhibition curve with a large enough effect; inconclusive means small, poorly fitted or top-dose-only effect; inactive means no such curve, though single readings can be large or run the other way. Where the call is inconclusive, the potency comes from a doubtful curve fit.
These compounds were tested against Ubiquitin carboxyl-terminal hydrolase 1 (Homo sapiens) (UniProt O94782) (assay: Inhibitors of USP1/UAF1: Primary Screen). Conditions: recombinant USP1/UAF1, Ub-Rhodamine cleavage fluorescence; activity change, negative = inhibition: at 57.1 µM (top of the series).
Summary of the method: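 1 nM enzyme complex + cpd, 15 min RT; start with Ub-Rho 150nM final; kinetic fluorescence ex 480/em 540, 6 reads q60 s. Buffer 50mM HEPES pH 7.8, 0.5mM EDTA, 0.1 mg/ml BSA, 1mM TCEP, 0.01% Tween-20.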
CCN(CC)S(=O)(=O)c1ccc(OC)c(NC(=O)c2ccc([N+](=O)[O-])cc2)c1 was tested, and the Potency was inconclusive: 25.1 µM [inhibitor, partial curve]. COc1ccc(OC)c(-c2csc(-c3c(N)c(C(=O)c4ccc(Cl)cc4)n4ccccc34)n2)c1 was tested, and the “activity change, negative = inhibition” value was inactive: -25.2%. In the case of COC(=O)c1ccc(NC(=O)Nc2cccc(F)c2)cc1, the Potency was inconclusive: 25.1 µM [inhibitor, partial curve]. In the case of CC(C)c1ccc(NC(=O)c2cnc3sc(N4CCCC4)nn3c2=O)cc1, the Potency was inconclusive: 0.282 µM [inhibitor, full curve, poor fit]. Cc1[nH]c2ccccc2c1C(C#N)(C#N)C1C(=O)c2ccccc2C1=O was tested, and the Potency was inconclusive: 15.8 µM [inhibitor, partial curve, poor fit]. In the case of Clc1ccccc1/C=N/c1cc(-c2ccccc2)nn1-c1ccccc1, the “activity change, negative = inhibition” value was inactive: -19.4%. For O=C(/C=C/Sc1ccc(C(F)(F)F)cn1)c1ccccc1, the “activity change, negative = inhibition” value was inactive: -13.8%. With NC(=O)NC(Cc1ccccc1)C(=O)NNC(=O)COc1ccccc1Cl (centres undefined) the Potency was inconclusive: 4.47 µM [inhibitor, single point]. For N#CCC(CNc1ncc(C(F)(F)F)cc1Cl)OC(=O)c1cccc([N+](=O)[O-])c1 (centres undefined), the Potency was inconclusive: 31.6 µM [inhibitor, partial curve]. In the case of COc1cc(OC)c(NC(=O)Cc2ccc(-n3c(C)nc4cccnc43)cc2)cc1Cl, the Potency was inconclusive: 0.199 µM [inhibitor, full curve, poor fit]. With COc1ccc(OC)c(NC(=O)CSc2nc(O)cc(=O)n2CC(C)C)c1 the “activity change, negative = inhibition” value was inactive: -7.27%. In the case of COc1cc2nc(/C=C/c3ccc(N(C)C)cc3)sc2cc1SC, the “activity change, negative = inhibition” value was inactive: 232%. For CCCCCC(=O)NNC(=S)NC(=O)c1ccc([N+](=O)[O-])cc1, the “activity change, negative = inhibition” value was inactive: -4.6%. In the case of COC(=O)c1ccc(OC)c(Cn2c(=O)n(-c3cccc(Cl)c3)c(=O)c3c4c(sc32)CN(C(C)=O)CC4)c1, the Potency was inconclusive: 70.8 µM [inhibitor, partial curve, poor fit]. For COCCCn1c(SCC(=O)Nc2ccccc2OC)nc2c(sc3ccccc32)c1=O, the “activity change, negative = inhibition” value was inactive: -20.6%. For CCN(CC(=O)Nc1c(F)cccc1F)C(=O)CCCOc1ccc(OC)cc1, the Potency was inconclusive: 11.2 µM [inhibitor, full curve, poor fit]. For CC1(C)C(=O)N(CCN2CCC(C(=O)c3ccc(F)cc3)CC2)c2ccccc21, the Potency was inconclusive: 2.51 µM [inhibitor, full curve, poor fit]. COc1ccc(NC(=O)CSc2nc(-c3ccc(F)cc3)c3cccc(C)c3n2)cc1 was tested, and the “activity change, negative = inhibition” value was inactive: 16.8%. In the case of CCOC(=O)c1cc(-c2ccc(N3CCOCC3)cc2)nn1-c1ccccc1C(=O)O, the Potency was inconclusive: 28.2 µM [inhibitor, partial curve]. CCCCOc1ccc(S(=O)(=O)NCc2csc(-c3ccc(OC)cc3)n2)cc1 was tested, and the “activity change, negative = inhibition” value was inactive: 14.2%. For Cc1ccc(Oc2cc(NN3CCCCC3)c([N+](=O)[O-])cc2[N+](=O)[O-])c(Cl)c1, the Potency was inconclusive: 8.91 µM [inhibitor, full curve]. With CC(C)(C)OC(=O)NCc1ccc(CNC(=O)c2[nH]cnc2C(=O)NC2CCN(C(=O)OC(C)(C)C)CC2)cc1 the Potency was inconclusive: 2.24 µM [inhibitor, full curve, poor fit]. In the case of O=C(O)c1ccccc1N=Cc1c(O)n(-c2nccs2)c(=O)c2ccccc12, the Potency was inconclusive: 44.7 µM [inhibitor, partial curve, poor fit]. For CCCCCOc1ccc(CSc2ncn[nH]2)cc1, the “activity change, negative = inhibition” value was inactive: -21.3%. For Cc1ccc(C2C3CN(C(C)C)CC=C3C(C#N)=C(N)C2(C#N)C#N)cc1 (centres undefined), the Potency was inconclusive: 31.6 µM [inhibitor, single point]. For COc1ccc(CCNC(=O)CCc2cn(Cc3ccc(C)cc3)c3ccccc23)c(OC)c1OC, the Potency was inconclusive: 56.2 µM [inhibitor, single point]. For NS(=O)(=O)c1ccc(N/N=C/c2ccc(O)c(O)c2O)c([N+](=O)[O-])c1, the Potency was inconclusive: 28.2 µM [inhibitor, partial curve]. In the case of Cc1cc(C)n(CC(=O)O)n1, the “activity change, negative = inhibition” value was inactive: -7.8%. With COc1ccc2c(c1)C1=NN(/C(C)=C/C(C)=O)C(c3cccc(F)c3)C1CC2 (centres undefined) the Potency was inconclusive: 0.398 µM [inhibitor, full curve, poor fit]. COc1cc(C(=O)Nc2nnc(-c3sccc3C)s2)cc(OC)c1OC was tested, and the Potency was inconclusive: 35.5 µM [inhibitor, partial curve, poor fit]. In the case of Cc1ccc(S(=O)(=O)NCCc2nnc3ccc(SCc4ccc(F)cc4)nn23)cc1, the Potency was inconclusive: 89.1 µM [inhibitor, partial curve]. O=C(NC(=S)Nc1ccccc1C(=O)O)c1ccc(-c2ccc(Br)cc2)o1 was tested, and the Potency was inconclusive: 35.5 µM [inhibitor, partial curve]. CCSc1nnc(Cc2cc(=O)[nH]c(=O)[nH]2)n1-c1ccc(F)cc1 was tested, and the Potency was inconclusive: 50.1 µM [inhibitor, partial curve, poor fit]. For Cc1c(C(=O)N2CCCC2)oc2c1-c1nn(CC(=O)NC(C)c3ccccc3)cc1CC2 (centres undefined), the Potency was inconclusive: 39.8 µM [inhibitor, partial curve, poor fit]. For Cc1cccc(C(C)C)c1NC(=O)C(C)OC(=O)Cc1n[nH]c(=O)c2ccccc12 (centres undefined), the Potency was inconclusive: 5.62 µM [inhibitor, full curve]. In the case of COc1ccc(CC(=O)NCC(c2cccs2)S(=O)(=O)c2ccc(Cl)cc2)cc1 (centres undefined), the Potency was inconclusive: 7.08 µM [inhibitor, full curve]. In the case of CCOC(=O)c1c(N2C(=O)C=CC2=O)sc(C)c1C, the Potency was inconclusive: 0.562 µM [inhibitor, full curve, poor fit]. CC(C)c1ccc(N2C(=O)N(Cc3ccccc3Cl)c3ccccc3S2(=O)=O)cc1 was tested, and the Potency was inconclusive: 0.178 µM [inhibitor, full curve]. In the case of CCCN(CC1CC1)C(=O)COC(=O)c1ccc2c(c1)C(=O)N(c1ccc(OCC)cc1)C2=O, the Potency was inconclusive: 0.224 µM [inhibitor, full curve, poor fit]. COc1ccc(-c2csc(N3CCSCC3)n2)cc1 was tested, and the Potency was inconclusive: 44.7 µM [inhibitor, partial curve, poor fit]. In the case of O=C(Nc1cccc2ncccc12)c1ccc(Cl)cc1, the “activity change, negative = inhibition” value was inactive: -23.1%. In the case of O=C(Cn1nnc(-c2ccccc2NC(=O)C2CC2)n1)NC1CCCCC1, the Potency was inconclusive: 11.2 µM [inhibitor, partial curve]. In the case of O=C(Nc1ccccc1C(=O)OCC(=O)N1CCc2ccccc2C1)c1ccco1, the Potency was inconclusive: 4.47 µM [inhibitor, full curve]. For COc1ccccc1N1CCN(C(=O)c2cnc(N3CCOCC3)c3ccccc23)CC1, the Potency was inconclusive: 14.1 µM [inhibitor, partial curve, poor fit]. COc1cccc(OCC(O)CNC(=O)c2oc3c(C)c(C)ccc3c2C)c1 (centres undefined) was tested, and the Potency was inconclusive: 28.2 µM [inhibitor, partial curve]. For COC(=O)c1ccc([C@H]2Nc3ccc(S(=O)(=O)Nc4cccc(C)c4)cc3[C@H]3C=CC[C@H]32)cc1, the “activity change, negative = inhibition” value was inactive: -26.5%. In the case of Cc1ccc(S(=O)(=O)N2CCN(C(=O)c3c(-c4ccccc4)noc3C)CC2)cc1C, the Potency was inconclusive: 31.6 µM [inhibitor, partial curve]. For CC(=O)c1ccc([C@@H]2C[C@]34CN(Cc5cccc(C(F)(F)F)c5)S(=O)(=O)[C@H]3C[C@H]2O4)cc1, the Potency was inconclusive: 0.178 µM [inhibitor, full curve, poor fit]. For Cc1cc(C)c2oc(-c3ccc(C)c(NC(=O)/C=C/c4ccco4)c3)nc2c1, the “activity change, negative = inhibition” value was inactive: -23.5%. O=[N+]([O-])c1ccc(/C=N/n2cnc3ccccc32)s1 was tested, and the “activity change, negative = inhibition” value was inactive: -25.8%. With CCCCCCCC1(C)NC(=O)NC1=O (centres undefined) the “activity change, negative = inhibition” value was inactive: -11%. For CCOC(=O)C1=C(N)N(c2ccc(C)cc2)C2=C(C(=O)CCC2)C1c1cccs1 (centres undefined), the Potency was inconclusive: 50.1 µM [inhibitor, partial curve, poor fit]. With O=c1c2ccccc2nc(-c2ccc(Cl)cc2)n1CCCOc1ccccc1F the “activity change, negative = inhibition” value was inactive: -11.1%. For Cc1ccc(NC(=O)c2nnn(CC(=O)Nc3ccc(C)c(Cl)c3)c2N)c(C)c1, the “activity change, negative = inhibition” value was inactive: -16%. In the case of O=C(Nc1ccccc1)OCC(CN1CCCCC1)OC(=O)Nc1ccccc1 (centres undefined), the Potency was inconclusive: 0.251 µM [inhibitor, full curve]. For CSc1ccccc1OCc1cc(C(=O)NCCN2CCCc3ccccc32)no1, the Potency was inconclusive: 28.2 µM [inhibitor, partial curve]. Cc1cc2nc(-c3ccc(SCc4ccc(C(=O)O)cc4)nc3)[nH]c2cc1C was tested, and the Potency was inconclusive: 35.5 µM [inhibitor, partial curve, poor fit]. COc1cc2ccccc2cc1C(=O)NC1CCC(C)CC1 (centres undefined) was tested, and the Potency was inconclusive: 79.4 µM [inhibitor, partial curve, poor fit]. In the case of CCN1CCN(c2cc(C)c3cc(NC(=O)c4ccc5c(c4)OCO5)ccc3n2)CC1, the Potency was inconclusive: 63.1 µM [inhibitor, partial curve, poor fit]. OCCOCCn1c(C2CCCN2c2nc(-c3ccc(F)cc3)cs2)nc2cc(Cl)c(Cl)cc21 (centres undefined) was tested, and the Potency was inconclusive: 50.1 µM [inhibitor, partial curve, poor fit]. For CC1CCN(C(=O)CCCC(=O)N2CCC(C)CC2)CC1, the Potency was inconclusive: 79.4 µM [inhibitor, partial curve, poor fit]. With C=CCc1cccc(CNc2cnc3ccccc3c2)c1O the “activity change, negative = inhibition” value was inactive: -2.25%. CCC(C)n1c(NC(=O)c2ccccc2)c(C#N)c2nc3ccccc3nc21 (centres undefined) was tested, and the Potency was inconclusive: 10 µM [inhibitor, partial curve]. For Cc1ccc(NC(=O)Nc2sc3nc4n(c(=O)c3c2C)CCC(C)CC4)c(Cl)c1 (centres undefined), the Potency was inconclusive: 0.794 µM [inhibitor, full curve, poor fit].

Reference: PubChem BioAssay AID743255 (National Center for Advancing Translational Sciences (NCATS), 2014)
Further: nearly all actives have a fitted effect of over 60% in size.
On the % scale 0 is the no-effect control and ±100 the full control effect; potency means the concentration at half of the fitted maximal effect.
